Data: patent publication US20120245154A1, “SUBSTITUTED AMINOTHIAZINE DERIVATIVE” (SHIONOGI & CO., LTD., priority 2009, published 2012)
Some of these results come from one statement about several compounds together.

By UniProt entry, the sequences of proteins in these tests, tags left out. Residues count along the entry.
UniProt P56817, 46-501: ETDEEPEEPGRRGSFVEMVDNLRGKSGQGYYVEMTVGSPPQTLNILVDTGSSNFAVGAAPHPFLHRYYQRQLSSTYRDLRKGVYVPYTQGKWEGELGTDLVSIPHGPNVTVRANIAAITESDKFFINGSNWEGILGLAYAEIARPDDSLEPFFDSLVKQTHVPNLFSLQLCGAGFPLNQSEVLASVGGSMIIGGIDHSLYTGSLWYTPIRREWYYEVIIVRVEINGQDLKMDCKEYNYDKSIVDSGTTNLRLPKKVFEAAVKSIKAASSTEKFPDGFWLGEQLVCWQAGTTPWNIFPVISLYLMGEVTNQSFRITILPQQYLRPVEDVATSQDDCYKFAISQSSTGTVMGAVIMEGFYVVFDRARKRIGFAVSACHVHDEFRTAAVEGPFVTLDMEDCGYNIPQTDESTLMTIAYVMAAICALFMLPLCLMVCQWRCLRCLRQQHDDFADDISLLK

molecular target: T1, Recombinant human BACE1 (Homo sapiens, UniProt P56817); assay: Assay of BACE1 inhibiting activity; type: biochemical; conditions: Recombinant human BACE1 7.4 nM, substrate peptide 18 nM, pH 5.0, 30° C., 3 hours; read-out: IC50 (50% inhibitory concentration against the enzymatic activity)
T1 construct: purchased R&D Systems
Method: 48.5 μL of substrate peptide solution (Biotin-XSEVNLDAEFRHDSGC-Eu: X=ε-amino-n-capronic acid, Eu=Europium cryptate) was added to each well of 96-hole half-area plate (a black plate: Corning Incorporated), and after addition of 0.5 μl of the test compound (dissolved in […]) and 1 μl of Recombinant human BACE1(R&D Systems), the reaction mixture was incubated at 30° C. for 3 hours. The substrate peptide was synthesized by reacting Cryptate TBPCOOH mono SMP (CIS bio international) with Biotin-XSEVNLDAEFRHDSGC (Peptide Institute, Inc.). The final concentrations of the substrate peptide and Recombinant human BACE1 were adjusted to 18 nM and 7.4 nM respectively, and the reaction was performed in sodium acetate buffer (50 mM sodium acetate, pH 5.0, 0.008% Triton X-100).
After the incubation for reaction, 50 μl of 8.0 μg/ml Streptavidin-XL665(CIS bio international) dissolved in phosphate buffer (150 mM K2HPO4—KH2PO4, pH 7.0, 0.008% Triton X-100, 0.8 M KF) was added to each well and left stand at 30° C. for an hour. After then, fluorescence intensity was measured (excitation wavelength: 320 nm, measuring wavelength: 620 nm and 665 nm) using Wallac 1420 multilabel counter (Perkin Elmer life sciences). Enzymatic activity was determined from counting ratio of each wavelength (10,000×Count 665/Count 620) and 50% inhibitory concentration against the enzymatic activity was calculated.

IC50, < 1000 nM:
C[C@@]1(c2cc(Nc3ncccc3C#N)ccc2F)C=C(CO)SC(N)=N1 [Compound I-1], COCCNC(=O)C1=C[C@@](C)(c2cc(NC(=O)c3ccc(C#N)cn3)ccc2F)N=C(N)S1 [Compound I-2], C[C@@]1(c2cc(NC(=O)c3ccc(C#N)cn3)ccc2F)C=C(C(F)F)SC(N)=N1 [Compound I-3], Cc1cnc(C(=O)Nc2ccc(F)c([C@]3(C)C=C(CO)SC(N)=N3)c2)cn1 [Compound I-4], COc1cnc(C(=O)Nc2ccc(F)c([C@]3(C)C=C(CO)SC(N)=N3)c2)cn1 [Compound I-5], C[C@@]1(c2cc(NC(=O)c3ccc(C#N)cn3)ccc2F)C=C(CO)SC(N)=N1 [Compound I-6], C[C@@]1(c2cc(NC(=O)c3ccc(Cl)cn3)ccc2F)C=C(CO)SC(N)=N1 [Compound I-7], CNC(=O)C1=C[C@@](C)(c2cc(NC(=O)c3cnc(C)cn3)ccc2F)N=C(N)S1 [Compound I-9], CNC(=O)C1=C[C@@](C)(c2cc(NC(=O)c3ccc(C#N)cn3)ccc2F)N=C(N)S1 [Compound I-10], CNC(=O)C1=C[C@@](C)(c2cc(NC(=O)c3cnc(OC)cn3)ccc2F)N=C(N)S1 [Compound I-11], CNC(=O)C1=C[C@@](C)(c2cc(NC(=O)c3ccc(Cl)cn3)ccc2F)N=C(N)S1 [Compound I-12], CC(C)(F)C1=C[C@@](C)(c2cc(NC(=O)c3ccc(C#N)cn3)ccc2F)N=C(N)S1 [Compound I-13], Cc1cnc(C(=O)Nc2ccc(F)c([C@]3(C)C=C(C(F)F)SC(N)=N3)c2)cn1 [Compound I-14], COc1cnc(C(=O)Nc2ccc(F)c([C@]3(C)C=C(C(F)F)SC(N)=N3)c2)cn1 [Compound I-15], C[C@@]1(c2cc(NC(=O)c3ccc(Cl)cn3)ccc2F)C=C(C(F)F)SC(N)=N1 [Compound I-16], CC(C)(O)C1=C[C@@](C)(c2cc(NC(=O)c3ccc(C#N)cn3)ccc2F)N=C(N)S1 [Compound I-17], Cc1cnc(C(=O)Nc2ccc(F)c([C@]3(C)C=C(C(C)(C)O)SC(N)=N3)c2)cn1 [Compound I-18], COc1cnc(C(=O)Nc2ccc(F)c([C@]3(C)C=C(C(C)(C)O)SC(N)=N3)c2)cn1 [Compound I-19], C[C@@]1(c2cc(NC(=O)c3ccc(C#N)cn3)ccc2F)C=C(c2ccccn2)SC(N)=N1 [Compound I-20], CC(C)(O)C1=C[C@@](C)(c2cc(NC(=O)c3ccc(Cl)cn3)ccc2F)N=C(N)S1 [Compound I-21], CC1(c2cc(NC(=O)c3ccc(C#N)cn3)ccc2F)N=C(N)SC2=CCCC21 (centres unmarked) [Compound I-53], CC(C)C1=C[C@@](C)(c2cc(NC(=O)c3ccc(C#N)cn3)ccc2F)N=C(N)S1 [Compound I-54], C[C@@]1(c2cc(NC(=O)c3ccc(C#N)cn3)ccc2F)C=C(c2cnco2)SC(N)=N1 [Compound I-55], COc1cnc(C(=O)Nc2ccc(F)c([C@]3(C)C=C(c4cnco4)SC(N)=N3)c2)cn1 [Compound I-56], C[C@@]1(c2cc(NC(=O)c3ccc(C#N)cn3)ccc2F)C=C(c2ncc[nH]2)SC(N)=N1 [Compound I-57], CC1(c2cc(NC(=O)c3ccc(C#N)cn3)ccc2F)N=C(N)SC2=C1CCC2 (centres unmarked) [Compound I-58], CC1(c2cc(NC(=O)c3ccc(Cl)cn3)ccc2F)N=C(N)SC2=C1CCC2 (centres unmarked) [Compound I-60], COc1cnc(C(=O)Nc2ccc(F)c(C3(C)N=C(N)SC4=C3CCC4)c2)cn1 (centres unmarked) [Compound I-61], C[C@]1(c2cc(NC(=O)c3ccc(C#N)cn3)ccc2F)N=C(N)Sc2ncccc21 [Compound I-63]
